According to publication PMC11189428:
Results are given in words; binding and its absence hold for the method and conditions named. Binding seen in cells or lysates may run through a third protein. Some results given as binding are weak or reduced against the parent protein; the word gives no strength.

The chains behind the UniProt entries cited, without tags or fusion partners. Residues count along the entry.
UniProt P38647, residues 47-679: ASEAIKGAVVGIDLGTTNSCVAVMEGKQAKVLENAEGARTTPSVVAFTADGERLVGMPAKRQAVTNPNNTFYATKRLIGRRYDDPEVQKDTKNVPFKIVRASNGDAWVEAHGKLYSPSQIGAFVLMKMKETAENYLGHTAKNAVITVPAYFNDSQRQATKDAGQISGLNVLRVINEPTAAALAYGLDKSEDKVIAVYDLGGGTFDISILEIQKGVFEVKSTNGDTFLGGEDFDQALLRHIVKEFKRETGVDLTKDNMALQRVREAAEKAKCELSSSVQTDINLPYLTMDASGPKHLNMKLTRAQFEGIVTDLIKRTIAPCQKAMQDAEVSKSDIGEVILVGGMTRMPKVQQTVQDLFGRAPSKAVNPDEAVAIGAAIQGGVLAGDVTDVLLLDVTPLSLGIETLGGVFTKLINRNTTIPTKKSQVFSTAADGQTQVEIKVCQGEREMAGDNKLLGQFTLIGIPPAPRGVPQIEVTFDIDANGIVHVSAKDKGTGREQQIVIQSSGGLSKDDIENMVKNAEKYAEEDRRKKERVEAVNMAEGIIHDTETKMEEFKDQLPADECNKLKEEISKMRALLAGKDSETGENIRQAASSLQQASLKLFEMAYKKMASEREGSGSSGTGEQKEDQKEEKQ
UniProt P70227: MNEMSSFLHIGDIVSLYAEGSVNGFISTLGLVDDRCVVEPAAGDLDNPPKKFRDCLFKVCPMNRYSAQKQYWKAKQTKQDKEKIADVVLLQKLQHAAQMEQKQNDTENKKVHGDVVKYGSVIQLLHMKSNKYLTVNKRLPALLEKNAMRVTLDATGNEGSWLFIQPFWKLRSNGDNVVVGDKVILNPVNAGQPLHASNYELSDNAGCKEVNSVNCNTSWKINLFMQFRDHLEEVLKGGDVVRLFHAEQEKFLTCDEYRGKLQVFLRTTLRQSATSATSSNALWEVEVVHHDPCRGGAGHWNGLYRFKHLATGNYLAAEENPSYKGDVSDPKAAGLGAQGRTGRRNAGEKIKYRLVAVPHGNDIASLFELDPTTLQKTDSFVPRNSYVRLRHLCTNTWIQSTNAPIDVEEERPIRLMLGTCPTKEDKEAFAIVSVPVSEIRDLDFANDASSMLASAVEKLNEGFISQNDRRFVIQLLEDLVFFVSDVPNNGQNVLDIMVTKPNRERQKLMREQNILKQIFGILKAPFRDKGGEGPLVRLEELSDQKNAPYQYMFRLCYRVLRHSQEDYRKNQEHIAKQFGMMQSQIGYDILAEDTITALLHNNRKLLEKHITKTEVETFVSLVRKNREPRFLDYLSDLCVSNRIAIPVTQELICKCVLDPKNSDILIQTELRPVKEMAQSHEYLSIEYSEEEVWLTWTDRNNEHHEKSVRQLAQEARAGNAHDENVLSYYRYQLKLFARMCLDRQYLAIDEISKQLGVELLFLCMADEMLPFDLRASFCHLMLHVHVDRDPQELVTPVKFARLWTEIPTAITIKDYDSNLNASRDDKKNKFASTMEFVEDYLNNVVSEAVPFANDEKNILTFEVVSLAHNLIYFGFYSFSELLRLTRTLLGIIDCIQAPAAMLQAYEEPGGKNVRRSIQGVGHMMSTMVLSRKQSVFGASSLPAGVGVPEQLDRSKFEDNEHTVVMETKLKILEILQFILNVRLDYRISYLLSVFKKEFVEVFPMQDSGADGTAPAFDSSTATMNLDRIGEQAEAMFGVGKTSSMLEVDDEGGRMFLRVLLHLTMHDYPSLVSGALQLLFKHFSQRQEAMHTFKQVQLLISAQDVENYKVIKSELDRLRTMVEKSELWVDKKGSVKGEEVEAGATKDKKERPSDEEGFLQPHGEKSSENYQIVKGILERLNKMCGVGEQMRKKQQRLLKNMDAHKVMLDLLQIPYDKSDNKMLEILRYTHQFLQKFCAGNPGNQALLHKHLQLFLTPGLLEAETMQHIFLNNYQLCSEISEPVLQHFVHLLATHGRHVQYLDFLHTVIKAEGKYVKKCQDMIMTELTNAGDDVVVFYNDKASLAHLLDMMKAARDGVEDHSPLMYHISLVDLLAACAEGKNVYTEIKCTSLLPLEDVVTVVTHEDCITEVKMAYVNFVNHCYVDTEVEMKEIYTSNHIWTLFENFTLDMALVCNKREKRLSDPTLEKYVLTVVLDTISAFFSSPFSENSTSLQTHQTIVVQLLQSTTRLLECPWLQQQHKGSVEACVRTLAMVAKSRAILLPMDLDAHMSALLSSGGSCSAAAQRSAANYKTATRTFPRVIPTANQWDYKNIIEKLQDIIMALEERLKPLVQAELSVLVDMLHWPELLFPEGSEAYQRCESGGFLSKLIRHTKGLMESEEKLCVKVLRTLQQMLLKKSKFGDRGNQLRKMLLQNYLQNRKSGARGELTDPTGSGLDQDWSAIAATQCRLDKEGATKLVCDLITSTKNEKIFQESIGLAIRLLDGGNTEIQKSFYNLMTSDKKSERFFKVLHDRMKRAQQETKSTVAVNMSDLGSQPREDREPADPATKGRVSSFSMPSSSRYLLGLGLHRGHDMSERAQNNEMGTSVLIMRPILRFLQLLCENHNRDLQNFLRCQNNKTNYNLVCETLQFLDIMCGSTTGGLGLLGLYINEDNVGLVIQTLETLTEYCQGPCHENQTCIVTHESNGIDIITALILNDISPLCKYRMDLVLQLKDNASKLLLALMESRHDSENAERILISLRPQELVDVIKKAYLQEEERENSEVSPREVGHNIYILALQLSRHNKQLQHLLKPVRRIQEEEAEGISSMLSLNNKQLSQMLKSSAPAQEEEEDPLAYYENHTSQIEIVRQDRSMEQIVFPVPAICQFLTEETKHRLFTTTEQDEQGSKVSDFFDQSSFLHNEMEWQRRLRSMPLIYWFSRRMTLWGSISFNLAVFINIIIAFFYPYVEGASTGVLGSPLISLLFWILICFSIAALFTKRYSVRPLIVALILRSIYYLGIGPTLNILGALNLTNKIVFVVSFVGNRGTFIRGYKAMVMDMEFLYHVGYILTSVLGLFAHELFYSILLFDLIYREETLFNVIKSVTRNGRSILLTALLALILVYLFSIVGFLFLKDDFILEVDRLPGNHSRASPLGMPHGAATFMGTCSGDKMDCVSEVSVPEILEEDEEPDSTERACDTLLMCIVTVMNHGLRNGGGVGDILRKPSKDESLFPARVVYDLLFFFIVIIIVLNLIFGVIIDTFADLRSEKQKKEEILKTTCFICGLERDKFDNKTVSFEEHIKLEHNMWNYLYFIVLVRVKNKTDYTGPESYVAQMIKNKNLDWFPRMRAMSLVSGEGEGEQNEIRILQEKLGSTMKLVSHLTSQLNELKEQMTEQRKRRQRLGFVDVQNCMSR

Experiments:
[1] = molecular target: glucose-regulated protein 75 (mouse (endogenous in mouse hippocampus, primary microglia and BV2 cells)) (UniProt P38647); experiment: proximity ligation; in situ Duolink PLA on 35-um frozen mouse brain sections (hippocampal DG), primary antibodies to IP3R-3, GRP75 and VDAC1 1:200 overnight at 4 C; control and CSDS mice, Iba-1 staining for microglia
[2] = molecular target: glucose-regulated protein 75 (mouse (endogenous in mouse hippocampus, primary microglia and BV2 cells)) (UniProt P38647); experiment: proximity ligation; Duolink PLA on cells grown on coverslips, fixed with 4% paraformaldehyde, 0.1% Triton X-100; primary microglia (and BV2 cells) untreated or treated with thapsigargin (1 uM, 12 h) or ATP (1 mM, 2 h)

binding [1]: binds
binding [2]: binds
Substance: inositol 1,4,5-triphosphate receptor 3 (from UniProt P70227 1-2670)
